Where a name gives a salt, the structure may show the parent alone. This is one part of the list. The calls rarely recur for the same compound in another form.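 Kinases, fused to nanoluciferase, were expressed in K562 cells; luminescence was measured every 4 h from 2 to 18 h as percent of control (DMSO = 100%, positive control = 0%). A time point is decreased if signal falls significantly (2 sigma). Hits were called by the authors by a rule that is not shown; the count of time points alone does not decide it.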
Columns and labels:
Test in all cases: number of time points (of 5) at which kinase-Nluc abundance scored as decreased, DMSO-normalised (count); higher = more persistent destabilization
Conditions in all cases: K562; 2-18 h
PRKCA = PRKCA (UniProt P17252)
PTK2 = PTK2 (UniProt Q05397)
PTK2B = PTK2B (UniProt Q14289)
RAF1 = RAF1 (UniProt P04049)
[1] = target: RAF1_S257L (clone: RAF1_mut) (UniProt P04049)
RET = RET (UniProt P07949)
[2] = target: RET_M918T (clone: RET_mut) (UniProt P07949)
RIOK1 = RIOK1 (UniProt Q9BRS2)
RIPK1 = RIPK1 (UniProt Q13546)
RIPK2 = RIPK2 (UniProt O43353)
ROR2 = ROR2 (UniProt Q01974)
RPS6KA1 = RPS6KA1 (UniProt Q15418)
SPHK1 = SPHK1 (UniProt Q9NYA1)
SRC = SRC (UniProt P12931)
STK24 = STK24 (UniProt Q9Y6E0)
STK38 = STK38 (UniProt Q15208)
SYK = SYK (UniProt P43405)
TEC = TEC (UniProt P42680)
TYK2 = TYK2 (UniProt P29597)
ULK3 = ULK3 (UniProt Q6PHR2)

The chains behind the UniProt entries cited, without tags or fusion partners. Where a name states a change or a piece, a line headed by the entry shows the natural chain unless it says otherwise.
UniProt Q05397, whole entry, looked up: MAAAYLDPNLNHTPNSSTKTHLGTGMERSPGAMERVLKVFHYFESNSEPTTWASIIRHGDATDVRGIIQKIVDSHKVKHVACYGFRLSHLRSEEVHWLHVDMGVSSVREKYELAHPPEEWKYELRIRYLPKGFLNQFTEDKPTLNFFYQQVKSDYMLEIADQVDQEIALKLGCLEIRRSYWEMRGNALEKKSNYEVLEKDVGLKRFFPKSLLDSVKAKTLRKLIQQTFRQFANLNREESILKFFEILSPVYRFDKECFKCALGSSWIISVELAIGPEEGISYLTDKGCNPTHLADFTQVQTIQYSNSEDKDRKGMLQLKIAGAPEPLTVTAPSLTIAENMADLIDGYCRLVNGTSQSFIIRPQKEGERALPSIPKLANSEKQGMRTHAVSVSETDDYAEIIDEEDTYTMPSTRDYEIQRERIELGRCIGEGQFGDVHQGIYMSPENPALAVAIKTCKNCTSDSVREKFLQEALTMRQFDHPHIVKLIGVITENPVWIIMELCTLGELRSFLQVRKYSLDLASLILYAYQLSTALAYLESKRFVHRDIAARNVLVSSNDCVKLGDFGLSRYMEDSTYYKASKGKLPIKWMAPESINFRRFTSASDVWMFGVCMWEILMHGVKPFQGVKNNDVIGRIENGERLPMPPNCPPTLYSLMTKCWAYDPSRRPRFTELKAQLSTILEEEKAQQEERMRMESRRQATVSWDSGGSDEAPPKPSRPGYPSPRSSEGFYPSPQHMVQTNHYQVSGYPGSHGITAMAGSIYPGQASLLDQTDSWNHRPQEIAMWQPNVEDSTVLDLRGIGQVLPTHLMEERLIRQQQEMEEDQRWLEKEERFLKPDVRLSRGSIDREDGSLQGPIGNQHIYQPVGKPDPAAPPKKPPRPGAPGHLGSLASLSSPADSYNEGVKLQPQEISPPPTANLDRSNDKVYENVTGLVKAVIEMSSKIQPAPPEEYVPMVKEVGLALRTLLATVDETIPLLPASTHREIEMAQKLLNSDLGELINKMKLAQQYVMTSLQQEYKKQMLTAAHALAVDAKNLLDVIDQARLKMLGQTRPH
UniProt Q13546: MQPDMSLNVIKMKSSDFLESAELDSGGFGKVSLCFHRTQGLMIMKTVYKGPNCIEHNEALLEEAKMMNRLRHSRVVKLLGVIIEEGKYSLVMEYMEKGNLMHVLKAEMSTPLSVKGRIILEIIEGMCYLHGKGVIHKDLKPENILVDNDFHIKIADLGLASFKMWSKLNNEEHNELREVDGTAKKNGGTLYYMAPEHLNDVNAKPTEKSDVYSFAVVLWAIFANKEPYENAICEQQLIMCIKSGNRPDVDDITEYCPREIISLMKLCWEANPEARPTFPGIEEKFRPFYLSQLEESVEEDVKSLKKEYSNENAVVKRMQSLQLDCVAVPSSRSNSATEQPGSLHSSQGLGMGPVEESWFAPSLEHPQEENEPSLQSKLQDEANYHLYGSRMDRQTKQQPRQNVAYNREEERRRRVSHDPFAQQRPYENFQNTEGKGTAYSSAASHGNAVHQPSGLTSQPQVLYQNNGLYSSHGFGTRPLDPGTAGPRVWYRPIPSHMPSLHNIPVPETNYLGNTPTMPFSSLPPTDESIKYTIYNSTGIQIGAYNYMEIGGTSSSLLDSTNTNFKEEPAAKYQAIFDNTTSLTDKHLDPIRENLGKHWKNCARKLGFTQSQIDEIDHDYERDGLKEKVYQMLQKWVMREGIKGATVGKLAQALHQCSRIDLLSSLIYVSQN
UniProt Q15418, whole entry: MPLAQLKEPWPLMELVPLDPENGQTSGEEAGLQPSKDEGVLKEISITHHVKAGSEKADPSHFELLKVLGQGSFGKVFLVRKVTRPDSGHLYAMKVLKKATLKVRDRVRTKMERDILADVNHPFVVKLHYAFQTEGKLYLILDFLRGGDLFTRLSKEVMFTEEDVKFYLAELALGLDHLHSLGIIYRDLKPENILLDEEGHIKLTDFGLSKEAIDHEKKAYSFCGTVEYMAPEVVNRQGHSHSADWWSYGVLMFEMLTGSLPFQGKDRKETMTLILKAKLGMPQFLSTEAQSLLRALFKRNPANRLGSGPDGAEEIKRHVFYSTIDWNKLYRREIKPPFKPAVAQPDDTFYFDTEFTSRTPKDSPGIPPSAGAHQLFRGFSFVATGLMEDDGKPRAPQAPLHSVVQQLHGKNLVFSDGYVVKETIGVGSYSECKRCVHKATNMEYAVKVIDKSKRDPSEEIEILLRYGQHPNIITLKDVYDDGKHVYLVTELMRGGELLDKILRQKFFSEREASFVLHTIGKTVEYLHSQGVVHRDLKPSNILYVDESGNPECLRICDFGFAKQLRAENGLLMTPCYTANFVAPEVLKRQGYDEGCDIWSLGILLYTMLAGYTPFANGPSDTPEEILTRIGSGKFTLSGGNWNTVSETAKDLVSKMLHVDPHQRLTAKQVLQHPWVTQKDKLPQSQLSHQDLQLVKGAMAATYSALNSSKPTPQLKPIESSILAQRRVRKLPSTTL
UniProt Q9NYA1, whole entry: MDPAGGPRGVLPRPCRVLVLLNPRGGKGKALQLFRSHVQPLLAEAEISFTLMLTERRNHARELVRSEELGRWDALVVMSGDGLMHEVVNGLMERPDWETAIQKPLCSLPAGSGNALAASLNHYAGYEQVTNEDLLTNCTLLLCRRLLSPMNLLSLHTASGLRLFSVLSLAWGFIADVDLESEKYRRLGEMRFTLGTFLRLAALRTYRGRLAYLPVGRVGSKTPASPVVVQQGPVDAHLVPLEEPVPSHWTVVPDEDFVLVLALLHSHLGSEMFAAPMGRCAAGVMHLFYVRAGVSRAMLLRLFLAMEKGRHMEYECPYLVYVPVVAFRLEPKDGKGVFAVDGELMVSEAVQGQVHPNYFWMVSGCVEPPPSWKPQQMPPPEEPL
UniProt Q15208: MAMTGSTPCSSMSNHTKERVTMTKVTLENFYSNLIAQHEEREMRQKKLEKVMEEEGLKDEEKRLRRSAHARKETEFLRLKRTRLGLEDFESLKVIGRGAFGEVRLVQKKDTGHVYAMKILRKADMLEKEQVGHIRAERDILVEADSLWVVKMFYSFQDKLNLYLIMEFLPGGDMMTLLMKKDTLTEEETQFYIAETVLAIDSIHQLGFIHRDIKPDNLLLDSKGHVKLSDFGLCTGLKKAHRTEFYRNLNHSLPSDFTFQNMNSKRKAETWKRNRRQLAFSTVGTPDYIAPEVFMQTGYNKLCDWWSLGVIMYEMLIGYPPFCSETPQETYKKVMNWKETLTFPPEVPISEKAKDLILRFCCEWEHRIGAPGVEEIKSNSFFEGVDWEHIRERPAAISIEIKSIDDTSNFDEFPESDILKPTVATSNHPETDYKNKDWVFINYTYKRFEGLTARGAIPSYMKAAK
UniProt P42680: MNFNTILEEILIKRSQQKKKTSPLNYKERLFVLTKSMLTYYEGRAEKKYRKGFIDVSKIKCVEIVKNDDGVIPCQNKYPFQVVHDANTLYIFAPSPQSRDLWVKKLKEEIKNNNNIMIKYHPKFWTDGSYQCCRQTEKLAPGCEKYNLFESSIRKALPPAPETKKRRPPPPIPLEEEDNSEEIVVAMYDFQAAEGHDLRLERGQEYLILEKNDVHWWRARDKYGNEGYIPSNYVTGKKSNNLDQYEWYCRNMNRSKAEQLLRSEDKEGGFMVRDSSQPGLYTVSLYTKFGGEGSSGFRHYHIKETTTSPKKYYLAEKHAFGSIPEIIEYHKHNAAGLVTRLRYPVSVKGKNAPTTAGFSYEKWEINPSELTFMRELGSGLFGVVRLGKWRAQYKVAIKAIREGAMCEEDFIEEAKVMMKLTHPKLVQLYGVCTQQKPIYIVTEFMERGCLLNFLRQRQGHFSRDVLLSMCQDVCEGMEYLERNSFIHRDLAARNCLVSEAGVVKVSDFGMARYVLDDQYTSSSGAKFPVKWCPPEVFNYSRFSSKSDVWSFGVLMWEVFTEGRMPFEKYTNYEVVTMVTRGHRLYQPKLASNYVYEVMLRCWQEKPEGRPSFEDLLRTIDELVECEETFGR
UniProt P29597: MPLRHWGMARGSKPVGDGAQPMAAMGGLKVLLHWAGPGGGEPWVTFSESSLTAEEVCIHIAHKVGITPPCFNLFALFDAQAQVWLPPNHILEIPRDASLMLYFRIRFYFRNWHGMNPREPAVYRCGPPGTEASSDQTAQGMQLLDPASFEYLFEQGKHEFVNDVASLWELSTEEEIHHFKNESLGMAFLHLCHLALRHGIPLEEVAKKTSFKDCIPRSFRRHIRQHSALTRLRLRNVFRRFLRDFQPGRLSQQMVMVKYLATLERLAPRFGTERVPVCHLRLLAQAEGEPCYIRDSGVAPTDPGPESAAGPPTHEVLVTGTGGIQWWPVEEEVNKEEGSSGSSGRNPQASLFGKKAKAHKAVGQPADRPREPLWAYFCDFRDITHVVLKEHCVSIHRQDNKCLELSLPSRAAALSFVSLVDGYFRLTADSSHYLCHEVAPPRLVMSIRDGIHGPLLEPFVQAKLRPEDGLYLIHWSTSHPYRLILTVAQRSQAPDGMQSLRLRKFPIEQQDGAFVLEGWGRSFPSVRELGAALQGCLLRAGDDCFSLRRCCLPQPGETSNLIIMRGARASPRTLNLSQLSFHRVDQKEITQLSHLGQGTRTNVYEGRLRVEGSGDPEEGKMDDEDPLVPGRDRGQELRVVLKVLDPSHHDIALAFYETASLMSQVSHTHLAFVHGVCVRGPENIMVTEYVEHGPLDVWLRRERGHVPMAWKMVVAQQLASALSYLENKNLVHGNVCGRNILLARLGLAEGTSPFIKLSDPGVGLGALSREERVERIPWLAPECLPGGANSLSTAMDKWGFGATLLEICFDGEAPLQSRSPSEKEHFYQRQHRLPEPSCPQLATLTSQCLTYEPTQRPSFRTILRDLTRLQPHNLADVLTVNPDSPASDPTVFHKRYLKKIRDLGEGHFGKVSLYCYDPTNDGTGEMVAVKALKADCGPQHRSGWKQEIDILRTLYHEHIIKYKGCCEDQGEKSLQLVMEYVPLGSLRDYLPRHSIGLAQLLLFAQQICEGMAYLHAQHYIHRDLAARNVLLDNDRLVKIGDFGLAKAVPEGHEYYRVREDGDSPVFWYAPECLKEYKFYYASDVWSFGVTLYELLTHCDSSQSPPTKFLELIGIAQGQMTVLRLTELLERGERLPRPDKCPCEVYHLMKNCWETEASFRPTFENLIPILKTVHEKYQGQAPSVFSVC
UniProt Q6PHR2: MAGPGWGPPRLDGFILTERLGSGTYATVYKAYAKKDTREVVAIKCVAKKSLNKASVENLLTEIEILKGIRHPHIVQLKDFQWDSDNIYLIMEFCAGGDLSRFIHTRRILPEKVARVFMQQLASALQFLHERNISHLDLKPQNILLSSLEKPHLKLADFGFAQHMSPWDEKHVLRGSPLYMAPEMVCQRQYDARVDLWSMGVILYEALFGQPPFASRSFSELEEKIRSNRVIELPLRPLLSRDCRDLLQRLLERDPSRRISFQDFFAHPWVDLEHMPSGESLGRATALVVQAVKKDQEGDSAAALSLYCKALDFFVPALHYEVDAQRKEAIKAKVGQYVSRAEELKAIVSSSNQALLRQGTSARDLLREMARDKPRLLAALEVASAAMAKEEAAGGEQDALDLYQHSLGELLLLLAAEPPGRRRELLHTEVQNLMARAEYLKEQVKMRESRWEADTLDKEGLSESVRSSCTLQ

Measured: number of time points

COc1cc2ncnc(Nc3ccc(O)cc3)c2cc1OC (10 µM)
0: PRKCA | PTK2 | PTK2B | RAF1 | [1] | RET | [2] | RIOK1 | RIPK1 | RIPK2 | ROR2 | RPS6KA1 | SPHK1 | SRC | STK24 | STK38 | SYK | TEC | TYK2 | ULK3

C=CC(=O)Nc1cccc(Nc2nc(Nc3ccc(OCCOC)cc3)ncc2F)c1 [Spebrutinib] (10 µM)
0: PRKCA | PTK2B | [1] | RET | [2] | RIPK1 | RIPK2 | ROR2 | RPS6KA1 | SPHK1 | SRC | STK24 | STK38 | SYK | TEC | TYK2 | ULK3
2: PTK2
1: RAF1 | RIOK1

CCC(=O)N1CCN(c2ccc(-n3c(=O)ccc4cnc5ccc(-c6cnc7ccccc7c6)cc5c43)cc2C(F)(F)F)CC1 [Torin 1] (2 µM)
3: [2] | RIPK1
1: PTK2 | STK38
0: PRKCA | PTK2B | RAF1 | [1] | RIOK1 | RIPK2 | ROR2 | RPS6KA1 | SPHK1 | SRC | STK24 | SYK | TEC | ULK3
4: RET | TYK2

Cc1cccc(Cn2nc(C3CC3)c3c(NC(=O)c4cnc5cc(OCCN6CCN(C)CC6)ccn45)cccc32)n1 (10 µM)
0: PRKCA | PTK2 | PTK2B | RAF1 | [1] | RET | [2] | RIOK1 | RIPK1 | RIPK2 | ROR2 | RPS6KA1 | SPHK1 | SRC | STK24 | STK38 | SYK | TEC | TYK2 | ULK3

CC(C)C(=O)Nc1ncc(-c2cc(C(F)F)nn2-c2c(Cl)cccc2Cl)s1 (10 µM)
5: PTK2 | SPHK1 | TYK2
0: PRKCA | PTK2B | RAF1 | [1] | RET | [2] | RIOK1 | RIPK1 | RIPK2 | ROR2 | RPS6KA1 | STK24 | STK38 | SYK | TEC | ULK3
1: SRC

Cc1cc(N2CCOCC2)cc2[nH]c(-c3c(NC[C@@H](O)c4cccc(Cl)c4)cc[nH]c3=O)nc12 (10 µM)
3: RAF1
4: TYK2 | ULK3
1: STK38
0: PRKCA | PTK2B | [1] | RIPK1 | ROR2 | RPS6KA1 | SPHK1 | SRC | STK24
2: RIOK1 | RIPK2 | TEC

CC(C)Oc1cc(Nc2nc(N[C@@H](C)c3ccc(F)cn3)ncc2Cl)n[nH]1 (10 µM)
1: [1]
0: PRKCA | PTK2 | PTK2B | RAF1 | RET | [2] | RIOK1 | RIPK1 | RIPK2 | ROR2 | RPS6KA1 | SPHK1 | SRC | STK24 | STK38 | SYK | TEC | TYK2 | ULK3

CNC(=O)c1cccc2cc(Oc3ccnc4cc(OCC5(N)CC5)c(OC)cc34)ccc12 [Lucitanib] (10 µM)
0: PRKCA | PTK2 | PTK2B | RAF1 | [1] | RET | [2] | RIOK1 | RIPK1 | RIPK2 | ROR2 | RPS6KA1 | SPHK1 | SRC | STK24 | STK38 | SYK | TEC | TYK2 | ULK3

Cn1c(=O)c(Oc2ccc(F)cc2F)cc2cnc(NC3CCOCC3)nc21 [R1487 (Hydrochloride)] (10 µM)
0: PRKCA | PTK2 | RAF1 | [1] | RET | [2] | RIOK1 | RIPK1 | RIPK2 | ROR2 | RPS6KA1 | SPHK1 | SRC | STK24 | STK38 | SYK | TEC | TYK2 | ULK3

— the supplement of paper PMC12823440, “Inhibitors supercharge kinase turnover through native proteolytic circuits” (Nature, 2025)
